These are yes or no findings as the source states them, for the method shown. Binding seen in cells or lysates may run through a third protein. Some binding calls cover weakened binding; strength is not graded here. Where a sequence is shown, tags or fusion partners need not be part of it.

Amino acid sequences for entries named in this document (tags omitted).
UniProt Q5SXA9: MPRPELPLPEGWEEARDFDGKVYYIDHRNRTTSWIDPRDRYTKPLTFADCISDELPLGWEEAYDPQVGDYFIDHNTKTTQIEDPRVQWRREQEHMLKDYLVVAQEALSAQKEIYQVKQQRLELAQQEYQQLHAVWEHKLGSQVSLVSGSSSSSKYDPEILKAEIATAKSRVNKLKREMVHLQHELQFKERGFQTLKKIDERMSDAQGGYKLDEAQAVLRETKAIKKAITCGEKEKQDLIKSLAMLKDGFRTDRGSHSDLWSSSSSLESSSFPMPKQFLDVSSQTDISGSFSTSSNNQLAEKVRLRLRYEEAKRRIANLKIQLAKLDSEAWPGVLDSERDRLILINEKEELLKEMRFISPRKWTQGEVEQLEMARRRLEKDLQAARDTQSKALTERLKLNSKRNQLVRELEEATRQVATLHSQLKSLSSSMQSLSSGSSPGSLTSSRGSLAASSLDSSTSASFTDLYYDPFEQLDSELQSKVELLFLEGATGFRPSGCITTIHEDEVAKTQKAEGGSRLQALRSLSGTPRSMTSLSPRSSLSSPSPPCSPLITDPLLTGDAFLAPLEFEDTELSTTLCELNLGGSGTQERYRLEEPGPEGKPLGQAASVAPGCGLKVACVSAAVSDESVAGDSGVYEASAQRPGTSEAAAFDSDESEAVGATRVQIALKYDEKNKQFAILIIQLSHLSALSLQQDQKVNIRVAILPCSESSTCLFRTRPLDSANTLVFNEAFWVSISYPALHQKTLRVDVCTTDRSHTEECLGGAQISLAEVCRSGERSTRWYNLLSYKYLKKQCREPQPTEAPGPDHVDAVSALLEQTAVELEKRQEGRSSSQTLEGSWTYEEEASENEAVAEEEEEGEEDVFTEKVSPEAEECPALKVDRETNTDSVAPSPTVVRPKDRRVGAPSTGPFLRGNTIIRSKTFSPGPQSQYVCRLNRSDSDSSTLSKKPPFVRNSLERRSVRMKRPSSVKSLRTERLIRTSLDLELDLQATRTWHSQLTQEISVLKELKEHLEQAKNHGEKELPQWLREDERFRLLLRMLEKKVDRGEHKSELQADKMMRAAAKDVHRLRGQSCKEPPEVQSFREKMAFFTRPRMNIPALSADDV

In experiment [1] the target is T1, DsRed-tagged Rab27a (mouse) (UniProt Q9ERI2).
T1 sequence: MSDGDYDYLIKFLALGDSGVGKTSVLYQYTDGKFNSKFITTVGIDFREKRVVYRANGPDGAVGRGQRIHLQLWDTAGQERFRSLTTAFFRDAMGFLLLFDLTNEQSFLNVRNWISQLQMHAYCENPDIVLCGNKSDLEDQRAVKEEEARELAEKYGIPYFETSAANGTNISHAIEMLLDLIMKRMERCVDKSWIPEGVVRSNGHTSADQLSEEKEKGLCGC
The experiment can be described thus: co-IP; 293T cells cotransfected with GFP-KIBRA and DsRed-Rab27a, lysed 48 h after transfection (25 mM Tris, 150 mM NaCl, 1 mM EDTA, 1% NP-40, 5% glycerinum, pH 7.4); Pierce Co-IP kit; IP with anti-KIBRA or anti-Rab27a antibody or normal IgG, blotted in a crossed manner.

Experiment [2] addresses GFP-tagged KIBRA (mouse) (UniProt Q5SXA9). The description is as above.

Turning to “GFP-tagged KIBRA (from UniProt Q5SXA9 1-1104)”, in experiment [1], the binding entry is reported as “binds”.

B1: DsRed-tagged Rab27a (protein, UniProt Q9ERI2 1-221)
chain: MSDGDYDYLIKFLALGDSGVGKTSVLYQYTDGKFNSKFITTVGIDFREKRVVYRANGPDGAVGRGQRIHLQLWDTAGQERFRSLTTAFFRDAMGFLLLFDLTNEQSFLNVRNWISQLQMHAYCENPDIVLCGNKSDLEDQRAVKEEEARELAEKYGIPYFETSAANGTNISHAIEMLLDLIMKRMERCVDKSWIPEGVVRSNGHTSADQLSEEKEKGLCGC
Turning to B1, in experiment [2], the binding result is on record as “binds”.

These data come from article PMC6456494.
